This assay concerns the target mitochondrial ADPR pyrophosphatase NUDT9 (UniProt Q9BW91). The assay can be described thus: SEC; Superdex 200 10/300 GL, 20 mM Tris (pH 8.5), 100 mM NaCl; affinity-purified proteins, absorbance at 280 nm; Chi4S also run again after five-fold concentration to ~100 uM; both purified. (In gel filtration, larger molecules generally elute earlier.)

No constants are given. Whether binding was seen depends on the method and setting. Some entries that bind do so weakly or less than the wild type.

B1: mitochondrial ADPR pyrophosphatase NUDT9 (enzyme, UniProt Q9BW91 59-350)
chain: ENSHNKARTSPYPGSKVERSQVPNEKVGWLVEWQDYKPVEYTAVSVLAGPRWADPQISESNFSPKFNEKDGHVERKSKNGLYEIENGRPRNPAGRTGLVGRGLLGRWGPNHAADPIITRWKRDSSGNKIMHPVSGKHILQFVAIKRKDCGEWAIPGGMVDPGEKISATLKREFGEEALNSLQKTSAEKREIEEKLHKLFSQDHLVIYKGYVDDPRNTDNAWMETEAVNYHDETGEIMDNLMLEAGDDAGKVKWVDINDKLKLYASHSQFIKLVAEKRDAHWSEDSEADCHAL
In the case of B1, the binding entry is reported as “binds”.
